{"source": "patent US10561379B2", "about": "“In vivo positron emission tomography-based perfusion/blood pool imaging using labeled erythrocytes” (H. LEE MOFFITT CANCER CENTER AND RESEARCH INSTITUTE, INC., priority 2016, dated 2020)", "tested_on": "human RBCs", "test": "Residual unincorporated FDG in washed RBC fraction, incubation supernatant and wash supernatants", "format": "cell-based"}
{"substance": "2-deoxy-2-(^18F)fluoro-D-glucose [FDG]", "values": [{"measurement": "relative % of total FDG in washed RBC fraction", "setting": "500 μl RBC fraction (FIG. 14)", "result": "59%±1%"}, {"measurement": "relative % of total FDG in 1st wash supernatant", "setting": "FIG. 14", "result": "3%±1%"}, {"measurement": "relative % of total FDG in 2nd wash supernatant", "setting": "FIG. 14", "result": "2%±1%"}, {"measurement": "relative % of total FDG in 3rd wash supernatant", "setting": "FIG. 14", "result": "1%±1%"}, {"measurement": "relative % of total FDG in original supernatant (unincorporated FDG after initial incubation)", "setting": "FIG. 14", "result": "36%±2%"}]}
